Data published in patent US20220017501A1, “MICROBIOCIDAL THIAZOLE DERIVATIVES” (SYNGENTA PARTICIPATIONS AG, priority 2018, published 2022).
Some of these results come from one statement about several compounds together.

Tested on: Plasmopara viticola
Type: in vivo
Settings: 200 ppm; grape vine leaf disks, preventative; compared to untreated control

With Cc1sc(N(C#N)c2cc(F)cc(F)c2)nc1C(=O)NC1(C)CCCC1 [I.g.08, 2-(N-cyano-3,5-difluoro-anilino)-5-methyl-N-(1-methylcyclopentyl)thiazole-4-carboxamide] the “control of Plasmopara viticola” value was “at least 80%”.
